Paper doi:10.1101/2025.05.29.656919 (bioRxiv, 2025)

Sequences of proteins named here, by UniProt entry; tags and fusion partners are left off. A change or cut given only in a name is not applied to a line headed by its entry.
UniProt Q9SRH5: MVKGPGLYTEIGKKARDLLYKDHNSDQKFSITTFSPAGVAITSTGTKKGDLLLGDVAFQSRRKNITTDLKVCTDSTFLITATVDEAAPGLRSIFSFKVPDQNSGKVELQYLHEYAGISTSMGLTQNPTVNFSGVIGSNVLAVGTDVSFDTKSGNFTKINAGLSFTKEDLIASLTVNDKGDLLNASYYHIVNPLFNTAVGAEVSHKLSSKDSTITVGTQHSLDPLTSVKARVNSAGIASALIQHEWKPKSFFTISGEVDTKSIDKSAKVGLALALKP
UniProt Q9FJX3: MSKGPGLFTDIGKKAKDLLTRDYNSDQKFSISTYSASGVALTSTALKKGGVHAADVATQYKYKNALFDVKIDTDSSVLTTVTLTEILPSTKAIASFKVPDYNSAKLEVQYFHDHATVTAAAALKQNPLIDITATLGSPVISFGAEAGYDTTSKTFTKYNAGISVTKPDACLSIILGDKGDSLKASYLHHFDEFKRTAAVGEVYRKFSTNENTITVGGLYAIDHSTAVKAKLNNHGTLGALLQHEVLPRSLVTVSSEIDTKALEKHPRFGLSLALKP
UniProt Q9SMX3: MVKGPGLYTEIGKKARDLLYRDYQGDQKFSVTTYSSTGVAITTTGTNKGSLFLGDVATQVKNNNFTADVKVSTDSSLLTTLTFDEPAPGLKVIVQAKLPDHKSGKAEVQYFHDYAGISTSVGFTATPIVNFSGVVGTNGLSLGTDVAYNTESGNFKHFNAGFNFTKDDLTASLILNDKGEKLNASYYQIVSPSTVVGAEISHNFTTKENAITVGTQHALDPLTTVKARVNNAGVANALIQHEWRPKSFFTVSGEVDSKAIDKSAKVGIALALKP

How the values were obtained:
Assay in all cases: pull-down
[1] = target: GST-fused VDAC1 N-terminal overhang with mutated AIM (Arabidopsis) (UniProt Q9SRH5)
[2] = target: GST-fused VDAC2 N-terminal overhang with mutated AIM (Arabidopsis) (UniProt Q9FJX3)
[3] = target: GST-fused VDAC3 N-terminal overhang with mutated AIM (Arabidopsis) (UniProt Q9SMX3)

Measured: binding

B1: 6×His-tagged ATG8e (natural protein, Arabidopsis, UniProt Q8S926 1-118, looked up)
chain: MNKGSIFKMDNDFEKRKAEAGRIREKYPDRIPVIVEKAEKSEVPNIDKKKYLVPSDLTVGQFVYVIRKRIKLSAEKAIFIFVDNVLPPTGELMSSVYEDKKDEDGFLYITYSGENTFG
no binding: all assays above

Results are given in words; binding and its absence hold for the method and conditions named.
